Results published in paper PMC10335695.
Results are given in words; binding and its absence hold for the method and conditions named. Binding seen in cells or lysates may run through a third protein. Some entries that bind do so weakly or less than the wild type.

Chains of the proteins cited; added tags and fusions are not shown.
UniProt P17542: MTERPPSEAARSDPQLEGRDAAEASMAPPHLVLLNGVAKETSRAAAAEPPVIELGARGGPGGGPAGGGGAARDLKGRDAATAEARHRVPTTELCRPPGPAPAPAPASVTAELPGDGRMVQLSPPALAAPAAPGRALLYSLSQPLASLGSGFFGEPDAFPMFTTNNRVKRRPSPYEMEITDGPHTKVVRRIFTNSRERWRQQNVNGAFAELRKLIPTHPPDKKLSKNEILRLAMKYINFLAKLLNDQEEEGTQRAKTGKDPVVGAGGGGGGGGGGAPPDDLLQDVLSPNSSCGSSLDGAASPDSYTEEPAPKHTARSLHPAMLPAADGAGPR
UniProt Q99081: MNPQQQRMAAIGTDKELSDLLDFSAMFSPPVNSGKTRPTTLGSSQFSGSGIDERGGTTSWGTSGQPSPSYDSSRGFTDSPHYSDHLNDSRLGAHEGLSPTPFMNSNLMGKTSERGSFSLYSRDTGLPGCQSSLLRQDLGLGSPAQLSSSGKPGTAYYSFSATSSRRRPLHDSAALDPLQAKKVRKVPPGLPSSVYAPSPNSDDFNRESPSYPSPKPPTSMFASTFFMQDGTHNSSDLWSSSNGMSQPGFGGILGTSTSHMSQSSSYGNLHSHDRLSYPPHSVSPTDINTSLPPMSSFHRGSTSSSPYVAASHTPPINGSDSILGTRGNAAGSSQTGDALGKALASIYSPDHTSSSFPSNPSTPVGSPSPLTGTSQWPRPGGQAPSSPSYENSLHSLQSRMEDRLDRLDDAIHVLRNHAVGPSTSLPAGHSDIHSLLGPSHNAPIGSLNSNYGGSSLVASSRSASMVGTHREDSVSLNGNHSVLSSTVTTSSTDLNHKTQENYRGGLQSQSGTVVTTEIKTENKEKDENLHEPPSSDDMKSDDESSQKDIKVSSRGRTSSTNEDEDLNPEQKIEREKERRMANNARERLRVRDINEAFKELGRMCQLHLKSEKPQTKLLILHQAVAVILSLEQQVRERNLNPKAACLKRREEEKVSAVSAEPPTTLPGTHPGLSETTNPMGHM

What was measured:
[1] = biological target: GFP-TAL1-long (human) (UniProt P17542); test: co-IP; Jurkat cells infected with GFP-TAL1-short or GFP-TAL1-long; GFP immunoprecipitated; interacting proteins detected by blot
[2] = biological target: FLAG-TAL1-long (human) (UniProt P17542); test: co-IP; Jurkat cells expressing FLAG-TAL1-short or FLAG-TAL1-long; lysis in 0.5% NP40, 150 mM NaCl, 50 mM Tris pH 7.5, 2 mM MgCl2; anti-FLAG M2 magnetic beads 2 h at 4°C, 4 washes; blot for endogenous TCF3 and TCF12

TCF12 (from UniProt Q99081 1-682)
binding [1]: binds
binding [2]: binds
